Experimental data reported in the supplement of paper PMC10849652.
Some of the results follow.

The chains behind the UniProt entries cited, without tags or fusion partners. Where a name states a change or a piece, a line headed by the entry shows the natural chain unless it says otherwise.
UniProt Q9NRX1: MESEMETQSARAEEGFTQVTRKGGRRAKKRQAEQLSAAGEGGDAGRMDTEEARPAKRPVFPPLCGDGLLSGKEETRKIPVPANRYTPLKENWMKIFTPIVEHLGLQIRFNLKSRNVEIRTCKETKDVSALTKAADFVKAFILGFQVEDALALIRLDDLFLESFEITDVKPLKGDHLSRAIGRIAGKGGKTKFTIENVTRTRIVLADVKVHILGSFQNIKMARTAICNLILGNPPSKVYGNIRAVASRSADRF
UniProt Q8NBL1: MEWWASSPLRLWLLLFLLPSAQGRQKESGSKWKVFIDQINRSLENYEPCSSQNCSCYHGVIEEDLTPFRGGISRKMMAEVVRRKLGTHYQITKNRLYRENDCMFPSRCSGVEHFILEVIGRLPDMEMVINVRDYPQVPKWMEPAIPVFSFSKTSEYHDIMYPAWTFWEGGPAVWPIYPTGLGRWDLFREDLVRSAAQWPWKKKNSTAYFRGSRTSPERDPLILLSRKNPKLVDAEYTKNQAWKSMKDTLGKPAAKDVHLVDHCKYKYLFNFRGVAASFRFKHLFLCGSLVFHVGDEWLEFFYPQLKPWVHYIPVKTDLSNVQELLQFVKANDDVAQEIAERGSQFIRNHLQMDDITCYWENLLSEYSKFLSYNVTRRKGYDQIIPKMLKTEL
UniProt Q9UHN1: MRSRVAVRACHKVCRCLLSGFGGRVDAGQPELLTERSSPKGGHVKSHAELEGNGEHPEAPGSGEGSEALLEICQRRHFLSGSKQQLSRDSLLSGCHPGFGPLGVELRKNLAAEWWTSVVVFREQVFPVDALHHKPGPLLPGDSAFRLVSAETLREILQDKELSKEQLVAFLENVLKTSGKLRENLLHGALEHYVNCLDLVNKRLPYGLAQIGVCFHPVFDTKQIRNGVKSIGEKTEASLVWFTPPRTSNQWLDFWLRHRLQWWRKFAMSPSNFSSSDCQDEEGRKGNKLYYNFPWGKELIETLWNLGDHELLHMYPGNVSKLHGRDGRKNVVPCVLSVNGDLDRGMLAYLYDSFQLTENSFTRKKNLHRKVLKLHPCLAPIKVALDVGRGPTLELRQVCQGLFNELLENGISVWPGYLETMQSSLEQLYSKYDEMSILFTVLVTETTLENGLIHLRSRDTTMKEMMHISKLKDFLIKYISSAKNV
UniProt Q08752, whole entry, looked up: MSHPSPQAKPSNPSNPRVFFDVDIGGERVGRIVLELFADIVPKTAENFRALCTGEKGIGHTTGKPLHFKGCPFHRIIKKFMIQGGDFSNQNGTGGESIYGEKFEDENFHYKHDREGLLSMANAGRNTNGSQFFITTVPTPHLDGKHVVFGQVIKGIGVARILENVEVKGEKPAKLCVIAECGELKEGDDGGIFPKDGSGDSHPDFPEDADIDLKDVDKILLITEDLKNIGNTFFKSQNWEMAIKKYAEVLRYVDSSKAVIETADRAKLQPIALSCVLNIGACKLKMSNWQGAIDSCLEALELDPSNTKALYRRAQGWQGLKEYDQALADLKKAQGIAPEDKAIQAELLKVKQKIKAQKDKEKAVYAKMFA
UniProt O14802: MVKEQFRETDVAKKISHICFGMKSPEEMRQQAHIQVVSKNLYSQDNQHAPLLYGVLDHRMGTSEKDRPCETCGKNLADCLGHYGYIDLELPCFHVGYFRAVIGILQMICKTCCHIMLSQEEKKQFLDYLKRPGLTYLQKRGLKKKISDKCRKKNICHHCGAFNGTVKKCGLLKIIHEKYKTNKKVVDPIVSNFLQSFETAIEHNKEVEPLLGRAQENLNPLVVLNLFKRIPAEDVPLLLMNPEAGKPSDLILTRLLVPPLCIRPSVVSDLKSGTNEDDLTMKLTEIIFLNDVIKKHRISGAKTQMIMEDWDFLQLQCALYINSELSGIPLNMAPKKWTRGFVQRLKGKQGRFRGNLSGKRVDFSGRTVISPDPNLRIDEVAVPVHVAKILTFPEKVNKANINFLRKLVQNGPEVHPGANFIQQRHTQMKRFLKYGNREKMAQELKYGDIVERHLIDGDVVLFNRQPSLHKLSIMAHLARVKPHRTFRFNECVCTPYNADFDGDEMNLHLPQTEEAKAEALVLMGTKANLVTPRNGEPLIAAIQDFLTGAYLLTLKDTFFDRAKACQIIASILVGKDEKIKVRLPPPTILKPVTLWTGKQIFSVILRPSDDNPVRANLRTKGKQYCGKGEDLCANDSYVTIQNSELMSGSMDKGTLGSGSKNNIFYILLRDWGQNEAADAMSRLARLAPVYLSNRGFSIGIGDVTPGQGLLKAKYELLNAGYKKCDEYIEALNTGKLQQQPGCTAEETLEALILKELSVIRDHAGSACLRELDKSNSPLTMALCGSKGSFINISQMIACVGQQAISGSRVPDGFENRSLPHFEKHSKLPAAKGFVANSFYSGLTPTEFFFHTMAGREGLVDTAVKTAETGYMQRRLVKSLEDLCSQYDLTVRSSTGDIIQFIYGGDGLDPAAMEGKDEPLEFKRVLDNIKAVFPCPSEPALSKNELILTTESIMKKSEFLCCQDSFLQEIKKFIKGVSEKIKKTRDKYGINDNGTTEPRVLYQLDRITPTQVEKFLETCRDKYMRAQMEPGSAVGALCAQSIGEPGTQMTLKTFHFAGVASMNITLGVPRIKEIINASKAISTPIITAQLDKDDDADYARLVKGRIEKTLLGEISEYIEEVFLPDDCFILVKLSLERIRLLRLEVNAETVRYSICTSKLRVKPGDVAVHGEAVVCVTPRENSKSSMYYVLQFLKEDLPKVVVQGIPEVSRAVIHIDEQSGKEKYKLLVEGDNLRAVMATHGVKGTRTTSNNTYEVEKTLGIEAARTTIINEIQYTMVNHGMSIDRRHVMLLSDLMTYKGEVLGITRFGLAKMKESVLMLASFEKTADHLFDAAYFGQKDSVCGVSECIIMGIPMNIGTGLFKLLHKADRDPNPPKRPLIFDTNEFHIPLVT
UniProt P56282: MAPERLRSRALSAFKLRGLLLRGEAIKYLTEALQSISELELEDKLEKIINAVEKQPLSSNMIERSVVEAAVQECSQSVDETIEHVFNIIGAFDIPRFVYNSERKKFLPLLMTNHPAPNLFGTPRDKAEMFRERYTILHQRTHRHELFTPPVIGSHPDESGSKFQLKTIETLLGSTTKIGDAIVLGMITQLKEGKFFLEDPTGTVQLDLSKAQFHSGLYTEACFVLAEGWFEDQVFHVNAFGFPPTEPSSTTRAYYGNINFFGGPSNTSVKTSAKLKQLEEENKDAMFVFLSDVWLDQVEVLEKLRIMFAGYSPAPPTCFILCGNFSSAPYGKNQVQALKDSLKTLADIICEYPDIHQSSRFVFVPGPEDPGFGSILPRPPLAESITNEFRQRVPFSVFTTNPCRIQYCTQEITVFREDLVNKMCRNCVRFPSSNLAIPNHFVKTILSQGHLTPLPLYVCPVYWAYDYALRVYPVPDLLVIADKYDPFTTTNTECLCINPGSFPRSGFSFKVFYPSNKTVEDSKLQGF
UniProt Q969H6: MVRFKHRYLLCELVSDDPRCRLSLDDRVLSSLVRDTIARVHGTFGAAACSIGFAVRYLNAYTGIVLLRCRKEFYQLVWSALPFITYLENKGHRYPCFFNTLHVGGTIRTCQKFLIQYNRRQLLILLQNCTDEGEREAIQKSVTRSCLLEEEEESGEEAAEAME
UniProt O60568: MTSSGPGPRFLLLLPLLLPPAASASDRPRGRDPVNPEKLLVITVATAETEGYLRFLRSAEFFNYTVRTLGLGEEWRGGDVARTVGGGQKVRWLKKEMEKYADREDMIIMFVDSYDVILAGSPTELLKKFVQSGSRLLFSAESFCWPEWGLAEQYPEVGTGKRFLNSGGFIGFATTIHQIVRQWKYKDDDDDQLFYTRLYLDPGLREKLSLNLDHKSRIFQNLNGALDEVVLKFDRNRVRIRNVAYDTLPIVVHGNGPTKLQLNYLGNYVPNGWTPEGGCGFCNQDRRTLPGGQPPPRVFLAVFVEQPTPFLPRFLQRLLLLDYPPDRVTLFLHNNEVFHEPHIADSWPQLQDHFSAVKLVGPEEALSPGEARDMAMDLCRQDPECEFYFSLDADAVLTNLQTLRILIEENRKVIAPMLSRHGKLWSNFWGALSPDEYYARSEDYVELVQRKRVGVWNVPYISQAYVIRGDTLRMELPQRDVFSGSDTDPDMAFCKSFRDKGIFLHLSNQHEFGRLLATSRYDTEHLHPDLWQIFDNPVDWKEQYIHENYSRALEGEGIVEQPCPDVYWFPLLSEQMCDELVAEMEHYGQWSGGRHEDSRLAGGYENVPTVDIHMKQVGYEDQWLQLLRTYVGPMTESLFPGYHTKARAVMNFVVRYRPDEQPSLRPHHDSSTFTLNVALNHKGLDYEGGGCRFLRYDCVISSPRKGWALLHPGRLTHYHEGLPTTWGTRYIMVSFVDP
UniProt Q9NRF9: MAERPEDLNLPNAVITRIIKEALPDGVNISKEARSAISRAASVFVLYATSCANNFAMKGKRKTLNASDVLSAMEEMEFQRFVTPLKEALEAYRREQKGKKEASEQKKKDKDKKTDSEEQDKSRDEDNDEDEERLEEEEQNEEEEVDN
UniProt Q8IY17: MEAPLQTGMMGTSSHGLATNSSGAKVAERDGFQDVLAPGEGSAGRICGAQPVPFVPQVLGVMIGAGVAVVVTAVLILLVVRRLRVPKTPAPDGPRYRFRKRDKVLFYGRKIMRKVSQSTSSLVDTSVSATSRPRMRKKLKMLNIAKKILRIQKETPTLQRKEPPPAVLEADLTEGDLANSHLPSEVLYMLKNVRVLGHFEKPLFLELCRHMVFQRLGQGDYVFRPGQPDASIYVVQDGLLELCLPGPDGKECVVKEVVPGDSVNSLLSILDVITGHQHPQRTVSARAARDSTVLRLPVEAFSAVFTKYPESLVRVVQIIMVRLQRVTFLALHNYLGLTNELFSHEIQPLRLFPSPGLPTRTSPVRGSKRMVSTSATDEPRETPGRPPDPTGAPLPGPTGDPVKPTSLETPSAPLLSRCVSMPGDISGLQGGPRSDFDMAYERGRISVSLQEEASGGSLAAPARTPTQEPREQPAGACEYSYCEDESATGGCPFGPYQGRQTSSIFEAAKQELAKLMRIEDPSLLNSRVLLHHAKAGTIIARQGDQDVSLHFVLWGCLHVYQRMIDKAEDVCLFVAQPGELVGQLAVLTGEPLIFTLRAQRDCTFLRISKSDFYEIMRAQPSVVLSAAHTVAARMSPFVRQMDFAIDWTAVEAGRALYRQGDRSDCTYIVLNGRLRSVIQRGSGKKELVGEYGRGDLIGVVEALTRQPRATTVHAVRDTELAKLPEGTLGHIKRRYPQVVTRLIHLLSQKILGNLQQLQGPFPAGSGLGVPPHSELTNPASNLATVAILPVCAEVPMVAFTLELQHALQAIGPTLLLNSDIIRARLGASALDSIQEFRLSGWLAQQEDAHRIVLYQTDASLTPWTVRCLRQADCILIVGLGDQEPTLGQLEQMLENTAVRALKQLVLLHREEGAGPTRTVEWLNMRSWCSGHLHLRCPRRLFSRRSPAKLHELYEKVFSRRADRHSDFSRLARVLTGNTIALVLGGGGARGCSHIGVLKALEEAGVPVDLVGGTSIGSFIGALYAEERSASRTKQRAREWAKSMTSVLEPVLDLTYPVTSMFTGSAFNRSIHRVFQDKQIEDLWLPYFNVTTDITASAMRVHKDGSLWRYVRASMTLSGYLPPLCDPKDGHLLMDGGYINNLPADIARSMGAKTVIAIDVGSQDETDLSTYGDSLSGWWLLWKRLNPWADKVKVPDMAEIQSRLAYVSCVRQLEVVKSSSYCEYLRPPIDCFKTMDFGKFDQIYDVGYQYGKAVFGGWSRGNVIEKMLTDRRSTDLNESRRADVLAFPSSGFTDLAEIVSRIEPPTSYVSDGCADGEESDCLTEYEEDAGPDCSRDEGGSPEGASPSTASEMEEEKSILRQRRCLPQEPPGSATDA
UniProt Q7Z4H8: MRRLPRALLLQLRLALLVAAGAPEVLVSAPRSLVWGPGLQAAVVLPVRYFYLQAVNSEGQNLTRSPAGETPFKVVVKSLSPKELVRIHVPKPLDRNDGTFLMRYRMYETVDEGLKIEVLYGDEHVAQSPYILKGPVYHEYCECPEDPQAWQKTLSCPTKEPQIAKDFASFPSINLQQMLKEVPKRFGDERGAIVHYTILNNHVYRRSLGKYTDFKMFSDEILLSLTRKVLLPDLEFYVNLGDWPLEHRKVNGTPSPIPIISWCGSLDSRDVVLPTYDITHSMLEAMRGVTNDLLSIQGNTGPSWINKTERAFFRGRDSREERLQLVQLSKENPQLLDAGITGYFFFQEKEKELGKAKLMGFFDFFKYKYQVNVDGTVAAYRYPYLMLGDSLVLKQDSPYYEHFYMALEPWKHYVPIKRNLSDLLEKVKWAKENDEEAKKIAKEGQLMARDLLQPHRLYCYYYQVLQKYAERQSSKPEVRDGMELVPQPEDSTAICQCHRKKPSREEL
UniProt Q9BT43: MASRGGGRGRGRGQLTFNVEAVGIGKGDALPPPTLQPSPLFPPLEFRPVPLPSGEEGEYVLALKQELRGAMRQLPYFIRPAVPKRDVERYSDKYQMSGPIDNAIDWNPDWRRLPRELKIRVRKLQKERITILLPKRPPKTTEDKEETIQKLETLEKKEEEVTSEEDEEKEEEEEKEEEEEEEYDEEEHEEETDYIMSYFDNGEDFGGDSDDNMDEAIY

Columns and labels:
Assay in all cases: log2 fold change, soluble protein after heating vs DMSO (PISA); higher = thermal stabilisation; K562 lysate, 10 uM; active = over 0.2 and 3.5 SD of the protein, either way, in both replicates (recomputed)
[1] = compound: CS(=O)(=O)CCNCc1ccc(-c2ccc3ncnc(Nc4ccc(OCc5cccc(F)c5)c(Cl)c4)c3c2)o1 [lapatinib]
Summary of the method: (§1)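 The values are log-two fold changes in thermal stability compared with solvent controls and come from duplicates. They were obtained by TMTpro 16plex LC-MS/MS, with channel sums equalised, on the supernatant after 21,000xg for 90 min. That supernatant came from crude K562 extract at 1 mg/mL protein treated with 10 μM compound for 30 min, heated for 3 min across 48°C-58°C, pooled and brought to 0.5% NP-40 at 4°C.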

[2] = compound: CS(=O)(=O)N1CCN(Cc2cc3nc(-c4cccc5[nH]ncc45)nc(N4CCOCC4)c3s2)CC1 [pictilisib]
Summary of the method: as §1

[3] = compound: C[C@@H](Oc1cc(-c2cnn(C3CCNCC3)c2)cnc1N)c1c(Cl)ccc(F)c1Cl [crizotinib]
Summary of the method: as §1

[4] = compound: C[C@H](C1=CC=C(C=C1)C(=O)NC2=C3C=CNC3=NC=C2)N
Summary of the method: as §1

[5] = compound: C[C@H](Nc1ncnc2nc[nH]c12)c1cc2cccc(Cl)c2c(=O)n1-c1ccccc1 [duvelisib]
Summary of the method: as §1

[6] = compound: Cc1cc(Nc2cc(CN3CCOCC3)c3nc(C)c(Cc4ccc(Cl)cc4F)n3n2)n[nH]1 [gandotinib]
Summary of the method: as §1

[7] = compound: Cc1cc(Nc2cc(N3CCN(C)CC3)nc(Sc3ccc(NC(=O)C4CC4)cc3)n2)n[nH]1 [tozasertib]
Summary of the method: as §1

[8] = compound: Cc1ccc(-n2nc(C(C)(C)C)cc2NC(=O)Nc2ccc(OCCN3CCOCC3)c3ccccc23)cc1 [doramapimod]
Summary of the method: as §1

[9] = compound: Cc1ccc(NC(=O)c2ccc(CN3CC[C@H](N(C)C)C3)c(C(F)(F)F)c2)cc1Nc1nccc(-c2cncnc2)n1 [bafetinib]
Summary of the method: as §1

[10] = compound: Cc1cccc(CC(=O)N2CCc3c2ccc(-c2cn(C)c4ncnc(N)c24)c3F)n1
Summary of the method: as §1

[11] = compound: Cc1cn(-c2cc(NC(=O)c3ccc(C)c(Nc4nccc(-c5cccnc5)n4)c3)cc(C(F)(F)F)c2)cn1 [nilotinib]
Summary of the method: as §1

[12] = compound: Cc1nc(Nc2n[nH]c3c2CN(C(=O)N[C@H](CN(C)C)c2ccccc2)C3(C)C)c2sccc2n1
Summary of the method: as §1

[13] = compound: Cc1nc(Nc2ncc(C(=O)Nc3c(C)cccc3Cl)s2)cc(N2CCN(CCO)CC2)n1 [dasatinib]
Summary of the method: as §1

[14] = compound: Cc1ncc(-c2ccnc(Nc3ccc(S(C)(=O)=O)cc3)n2)n1C(C)C
Summary of the method: as §1

[15] = compound: Cn1cc(-c2ccc3c(c2)CCN3C(=O)Cc2cccc(C(F)(F)F)c2)c2c(N)ncnc21
Summary of the method: as §1

[16] = compound: Cn1cc(CNCC2CCN(c3ncc(C(=O)NO)cn3)CC2)c2ccccc21 [quisinostat]
Summary of the method: as §1

[17] = compound: Cn1cncc1[C@@](N)(c1ccc(Cl)cc1)c1ccc2c(c1)c(-c1cccc(Cl)c1)cc(=O)n2C [tipifarnib]
Summary of the method: as §1

[18] = compound: NC(=O)Nc1cc(-c2cccc(F)c2)sc1C(=O)N[C@H]1CCCNC1
Summary of the method: as §1

[19] = compound: NC(=O)c1cnc(N[C@@H]2CCCC[C@@H]2N)nc1Nc1cccc(-n2nccn2)c1
Summary of the method: as §1

[20] = compound: NC1(c2ccc(-c3nc4ccn5c(=O)[nH]nc5c4cc3-c3ccccc3)cc2)CCC1
Summary of the method: as §1

Measured: log2 fold change

PNO1 (UniProt Q9NRX1)
inactive: [1] 0.009 | [2] -0.009 | [3] 0.013 | [4] 0.007 | [5] 0.012 | [6] -0.055 | [7] 0 | [8] -0.08 | [9] -0.039 | [10] 0.006 | [11] -0.01 | [12] -0.005 | [13] 0 | [14] 0.008 | [15] 0.009 | [16] 0.047 | [17] -0.015 | [18] 0.004 | [19] -0.012 | [20] 0.013

POLB (UniProt P06746)
inactive: [1] 0.017 | [2] 0.075 | [3] -0.003 | [4] 0.011 | [5] 0.018 | [6] -0.041 | [7] -0.015 | [8] -0.003 | [9] -0.024 | [10] -0.009 | [11] 0.035 | [12] -0.013 | [13] 0 | [14] -0.026 | [15] 0.008 | [16] -0.028 | [17] 0.002 | [18] 0.022 | [19] 0.012 | [20] -0.053

POGLUT1 (UniProt Q8NBL1)
inactive: [1] 0.01 | [2] -0.034 | [3] 0.049 | [4] -0.016 | [5] -0.041 | [6] -0.015 | [7] 0.078 | [8] -0.022 | [9] -0.01 | [10] 0.004 | [11] -0.01 | [12] -0.027 | [13] 0.005 | [14] 0.019 | [15] 0.014 | [16] 0.073 | [17] 0.032 | [18] 0.005 | [19] -0.009 | [20] 0.049

POLG2 (UniProt Q9UHN1)
inactive: [1] 0.004 | [2] -0.022 | [3] 0.003 | [4] 0.001 | [5] 0 | [6] 0.024 | [7] -0.036 | [8] 0.012 | [9] 0.015 | [10] -0.082 | [11] 0.056 | [12] 0.031 | [13] 0.043 | [14] 0.041 | [15] -0.001 | [16] -0.055 | [17] -0.005 | [18] 0.013 | [19] -0.005 | [20] 0.026

PPID (UniProt Q08752)
inactive: [1] 0 | [2] 0.009 | [3] -0.013 | [4] 0.071 | [5] -0.016 | [6] -0.124 | [7] 0.026 | [8] -0.017 | [9] 0.004 | [10] -0.095 | [11] 0 | [12] -0.007 | [13] -0.002 | [14] 0.013 | [15] 0.015 | [16] -0.015 | [17] 0.03 | [18] 0.028 | [19] 0.009 | [20] -0.001

2 records drawn at random from those above:
POLG2 (UniProt Q9UHN1)
inactive: [1] 0.004 | [2] -0.022 | [3] 0.003 | [4] 0.001 | [5] 0 | [6] 0.024 | [7] -0.036 | [8] 0.012 | [9] 0.015 | [10] -0.082 | [11] 0.056 | [12] 0.031 | [13] 0.043 | [14] 0.041 | [15] -0.001 | [16] -0.055 | [17] -0.005 | [18] 0.013 | [19] -0.005 | [20] 0.026

PNO1 (UniProt Q9NRX1)
inactive: [1] 0.009 | [2] -0.009 | [3] 0.013 | [4] 0.007 | [5] 0.012 | [6] -0.055 | [7] 0 | [8] -0.08 | [9] -0.039 | [10] 0.006 | [11] -0.01 | [12] -0.005 | [13] 0 | [14] 0.008 | [15] 0.009 | [16] 0.047 | [17] -0.015 | [18] 0.004 | [19] -0.012 | [20] 0.013

Continuation.

POLR3A (UniProt O14802)
inactive: [1] -0.024 | [2] -0.01 | [3] -0.002 | [4] -0.081 | [5] 0.015 | [6] 0.005 | [7] 0.006 | [8] -0.007 | [9] -0.024 | [10] 0.068 | [11] 0.003 | [12] 0.001 | [13] 0.002 | [14] -0.009 | [15] 0.013 | [16] 0.004 | [17] 0.004 | [18] 0.016 | [19] 0.01 | [20] -0.003

POLE2 (UniProt P56282)
inactive: [1] 0.151 | [2] -0.124 | [3] -0.047 | [4] -0.111 | [5] -0.001 | [6] 0.044 | [7] 0.025 | [8] 0.016 | [9] -0.008 | [10] 0 | [11] 0.02 | [12] 0.013 | [13] 0.007 | [14] 0.022 | [15] 0.015 | [16] -0.005 | [17] 0.099 | [18] 0.037 | [19] -0.065 | [20] -0.157

POP5 (UniProt Q969H6)
inactive: [1] -0.026 | [2] -0.057 | [3] 0.005 | [4] 0.12 | [5] 0.077 | [6] -0.11 | [7] -0.001 | [8] 0.019 | [9] -0.039 | [10] -0.183 | [11] 0.047 | [12] 0.062 | [13] 0.025 | [14] -0.026 | [15] -0.031 | [16] -0.043 | [17] 0.019 | [18] 0.042 | [19] 0.013 | [20] 0.089

PLOD3 (UniProt O60568)
inactive: [1] -0.024 | [2] -0.023 | [3] 0.026 | [4] 0.003 | [5] -0.018 | [6] -0.018 | [7] 0.074 | [8] 0.021 | [9] 0.017 | [10] 0.006 | [11] 0.008 | [12] -0.018 | [13] 0 | [14] -0.022 | [15] 0.029 | [16] 0.044 | [17] -0.012 | [18] 0.032 | [19] -0.005 | [20] -0.011

POLE3 (UniProt Q9NRF9)
inactive: [1] 0.012 | [2] 0.054 | [3] 0.049 | [4] 0.004 | [5] 0.013 | [6] 0.041 | [7] -0.038 | [8] -0.007 | [9] 0.034 | [10] -0.001 | [11] -0.005 | [12] -0.002 | [13] -0.031 | [14] 0.001 | [15] -0.053 | [16] 0.075 | [17] 0.02 | [18] -0.019 | [19] -0.002 | [20] -0.019

PLXNB2 (UniProt O15031)
inactive: [1] -0.033 | [2] -0.068 | [3] -0.014 | [4] -0.019 | [5] 0.031 | [6] -0.046 | [7] 0.027 | [8] -0.044 | [9] -0.004 | [10] 0.031 | [11] -0.052 | [12] 0.019 | [13] -0.036 | [14] 0.013 | [15] 0.003 | [16] 0.016 | [17] -0.017 | [18] 0.042 | [19] -0.024 | [20] -0.006

PLG (UniProt P00747)
inactive: [1] -0.049 | [2] -0.033 | [3] 0.055 | [4] -0.027 | [5] 0.252 | [6] 0.039 | [7] -0.043 | [8] -0.036 | [9] -0.028 | [10] 0.05 | [11] 0.079 | [12] -0.35 | [13] 0.074 | [14] 0.022 | [15] -0.191 | [16] -0.033 | [17] -0.087 | [18] -0.025 | [19] -0.023 | [20] 0.044

PNPLA6 (UniProt Q8IY17)
inactive: [1] 0.088 | [2] -0.139 | [3] -0.198 | [4] -0.01 | [5] 0.042 | [6] 0.042 | [7] 0.025 | [8] 0.054 | [9] -0.089 | [10] 0.078 | [11] 0.061 | [12] 0.035 | [13] -0.133 | [14] 0.018 | [15] 0.093 | [16] -0.168 | [17] -0.075 | [18] -0.002 | [19] -0.03 | [20] -0.023

POGLUT3 (UniProt Q7Z4H8)
inactive: [1] -0.013 | [2] 0.011 | [3] 0.031 | [4] -0.022 | [5] -0.03 | [6] 0 | [7] -0.059 | [8] 0.026 | [9] 0.018 | [10] 0.035 | [11] 0.051 | [12] -0.003 | [13] 0.016 | [14] -0.01 | [15] -0.012 | [16] 0.048 | [17] 0.003 | [18] -0.02 | [19] 0.007 | [20] 0.029

POLR3GL (UniProt Q9BT43)
inactive: [1] -0.045 | [2] -0.293 | [3] -0.096 | [4] 0.107 | [5] -0.04 | [6] -0.076 | [7] -0.061 | [8] 0.061 | [9] 0.168 | [10] -0.203 | [11] -0.017 | [12] 0.01 | [13] -0.07 | [14] -0.024 | [15] 0.043 | [16] -0.06 | [17] 0.021 | [18] -0.051 | [19] -0.03 | [20] -0.085
